Experimental data reported in PMC3110180.

Key:
Wts:FLAG (Drosophila) [1] = target: T1, Wts:FLAG (Drosophila) (UniProt Q9VA38); assay: co-IP; three proteins co-expressed in S2 cells: Wts:FLAG with Zyx:V5 or Zyx-LD:V5 and Dachs:V5 (1x, 3x, 6x pUAS-dachs:V5 plasmid); anti-FLAG beads; V5-tagged proteins detected by Western blot
T1 sequence: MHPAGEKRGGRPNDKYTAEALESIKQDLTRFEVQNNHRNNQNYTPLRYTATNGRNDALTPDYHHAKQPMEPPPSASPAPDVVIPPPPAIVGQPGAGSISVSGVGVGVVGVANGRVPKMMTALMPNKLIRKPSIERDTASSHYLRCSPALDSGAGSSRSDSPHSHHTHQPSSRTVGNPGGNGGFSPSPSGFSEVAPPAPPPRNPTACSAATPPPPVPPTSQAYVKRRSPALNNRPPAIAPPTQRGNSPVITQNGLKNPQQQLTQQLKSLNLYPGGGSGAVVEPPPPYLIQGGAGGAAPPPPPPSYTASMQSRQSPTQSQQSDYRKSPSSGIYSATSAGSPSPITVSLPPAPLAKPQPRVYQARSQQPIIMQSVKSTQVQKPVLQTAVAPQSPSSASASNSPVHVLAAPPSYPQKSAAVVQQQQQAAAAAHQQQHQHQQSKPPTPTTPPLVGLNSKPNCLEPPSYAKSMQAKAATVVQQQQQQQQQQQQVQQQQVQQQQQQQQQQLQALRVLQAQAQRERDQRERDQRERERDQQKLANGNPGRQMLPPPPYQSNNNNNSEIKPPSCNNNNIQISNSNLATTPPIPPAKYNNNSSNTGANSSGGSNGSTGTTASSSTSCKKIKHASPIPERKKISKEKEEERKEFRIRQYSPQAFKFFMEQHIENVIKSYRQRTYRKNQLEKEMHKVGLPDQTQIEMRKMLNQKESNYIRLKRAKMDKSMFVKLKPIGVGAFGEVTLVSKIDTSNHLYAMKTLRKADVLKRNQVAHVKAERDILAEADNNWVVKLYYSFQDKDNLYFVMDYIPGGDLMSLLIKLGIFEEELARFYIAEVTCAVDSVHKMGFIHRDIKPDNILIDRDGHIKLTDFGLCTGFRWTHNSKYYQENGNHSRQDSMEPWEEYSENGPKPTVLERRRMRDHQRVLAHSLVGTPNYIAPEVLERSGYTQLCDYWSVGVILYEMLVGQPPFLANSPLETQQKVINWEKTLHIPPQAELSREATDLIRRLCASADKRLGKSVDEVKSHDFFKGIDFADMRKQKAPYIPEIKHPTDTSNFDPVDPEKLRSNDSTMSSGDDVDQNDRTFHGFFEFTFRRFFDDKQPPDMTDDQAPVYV

Wts:FLAG (Drosophila) [2] = target: T1, Wts:FLAG (Drosophila); assay: co-IP; tagged proteins co-expressed in Drosophila S2 cells; lysates cleared with protein G beads; anti-FLAG M2 beads overnight at 4°C, six washes with RIPA buffer; V5-tagged proteins detected by Western blot; GFP:FLAG as negative control

Row | binding (Wts:FLAG (Drosophila) [1]) | binding (Wts:FLAG (Drosophila) [2]) | Substance
1 | binds |  | Dachs:V5 (Drosophila)
2 | binds | binds weakly | Zyx:V5 (Drosophila)

These are yes or no findings as the source states them, for the method shown. In cells and extracts the contact can be indirect. A result given as binding can be weak or reduced; the word gives no strength. Tags and fused reporters may be left off the sequences shown.
